Results are given in words; binding and its absence hold for the method and conditions named. Binding seen in cells or lysates may run through a third protein. A result given as binding can be weak or reduced; the word gives no strength.
Target: FL-YFP (full length TbArl13 fused to YFP) (Trypanosoma brucei) (UniProt Q38B80)
Test: co-IP; GFP-nAb beads incubated with lysates from cells expressing FL-YFP, DD-YFP, CD-YFP or YFP alone; native TbArl13 detected with anti-TbArl13 antibody in input, IP and unbound fractions

Sequences of proteins named here, by UniProt entry; tags and fusion partners are left off. A change or cut given only in a name is not applied to a line headed by its entry.
UniProt Q38B80: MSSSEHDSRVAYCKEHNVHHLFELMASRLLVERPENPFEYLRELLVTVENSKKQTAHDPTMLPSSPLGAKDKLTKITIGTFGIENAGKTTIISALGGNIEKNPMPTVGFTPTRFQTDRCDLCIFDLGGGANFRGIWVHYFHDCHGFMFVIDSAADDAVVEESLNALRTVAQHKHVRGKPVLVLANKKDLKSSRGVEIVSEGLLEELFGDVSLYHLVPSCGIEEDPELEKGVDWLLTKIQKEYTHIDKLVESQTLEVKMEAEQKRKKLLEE

In the case of “endogenous TbArl13 (Trypanosoma brucei Arl13b ortholog, Tb927.10.5230) (from UniProt Q38B80)”, the binding is reported as “binds”.
